Test results as given in doi:10.1101/2025.06.16.659844.
No constants are given. Whether binding was seen depends on the method and setting. For some assays here: In cells and extracts the contact can be indirect. Some entries that bind do so weakly or less than the wild type.

Protein sequences, listed by entry. Tags and fused reporters are not part of them. Lines headed by an entry give the natural chain unless they say otherwise; changes in a name come on top. Residues count along the entry.
UniProt P61960: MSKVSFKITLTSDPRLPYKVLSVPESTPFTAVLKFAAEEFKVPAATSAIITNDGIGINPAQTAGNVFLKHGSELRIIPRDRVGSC
UFM1: residues 2-83 of P61960
UniProt Q9H9Q4: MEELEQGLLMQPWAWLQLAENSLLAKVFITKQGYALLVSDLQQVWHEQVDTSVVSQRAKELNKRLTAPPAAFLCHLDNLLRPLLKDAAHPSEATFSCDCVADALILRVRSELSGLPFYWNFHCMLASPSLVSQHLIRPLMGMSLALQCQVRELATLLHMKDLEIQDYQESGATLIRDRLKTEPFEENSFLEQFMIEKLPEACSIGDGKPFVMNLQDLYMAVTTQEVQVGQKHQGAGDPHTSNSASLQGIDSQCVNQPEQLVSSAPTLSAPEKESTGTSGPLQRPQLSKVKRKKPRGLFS

Tests used:
GST-UFM1 = GST-UFM1 (UniProt P61960); assay: pull-down
UFM1 = UFM1 (UniProt P61960); assay: NMR titration

Row | binding (GST-UFM1) | binding (UFM1) | Substance
1 | binds |  | GFP-tagged XLF (from UniProt Q9H9Q4 1-299)
2 |  | binds | recombinant XLF (from UniProt Q9H9Q4 1-299)
